Results reported in PubChem BioAssay AID2685 (National Center for Advancing Translational Sciences (NCATS), 2010).
Some of the results follow. These are further read-outs of the screen, such as a control signal, another cell line or another target. No call is given for them. Most of these compounds were active or inconclusive in the main read-out, so they are no random draw. Words in brackets tell the shape of the fitted curve; partial curves, single points and poor fits give uncertain potencies.

Assay: qHTS Assay for Lipid Storage Modulators in Drosophila S3 Cells;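 as to cell number change: cells counted by Cell Tracker Red CMTPX staining in the red channel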
Details: BODIPY lipid droplet fluorescence, 18-24 h; for cell number change: measured here: cell count max response, cells fed with added oleic acid
Outline: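 Drosophila S3 cells loaded with oleic acid (400 uM, as added) and compounds at several concentrations; lipid droplets imaged by 488-nm laser-scanning cytometry, 500–530 nm intensity and object ratio to cell channel. Percent activity normalized to 20 uM Triacsin C.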

[1] = measured here: cell number channel AC50, cells fed with added oleic acid
[2] = measured here: lipid fluorescence (Fed channel) AC50, cells fed with added oleic acid

Compound	cell number change [%]	AC50 [1]	AC50 [2]
CC(=O)c1ccc(NC(=O)C(C)OC(=O)c2ccc(Br)o2)cc1 (stereo unspecified)	-20.2	–	–
COc1cccc(N2CCN(CC(=O)N3CCN(S(=O)(=O)c4ccc(Cl)cc4)CC3)CC2)c1	125	25.9 µM [rising, single point]	6.51 µM [falling, single point]
COc1ccc(NC(=O)c2[nH]c(C)c(C(C)=O)c2C)cc1S(=O)(=O)N1CCOCC1	-12.3	–	0.651 µM [falling, full curve, poor fit]
CCc1ccccc1NC(=O)CN(C)C(=O)CSc1nnc(Nc2ccc(C)cc2)s1	20.4	–	2.91 µM [rising, full curve, poor fit]
O=C(CN1CCN(C(=O)C2CCCO2)CC1)Nc1cc(Cl)ccc1Cl (stereo unspecified)	7.08	–	–
Cc1ccc(S(=O)(=O)N2CCCCC2)cc1NC(=O)COC(=O)Cc1ccc(Cl)cc1	32.2	1.3 µM [rising, partial curve]	–
O=C(Nc1nccs1)C1CCN(S(=O)(=O)c2cccnc2)CC1	19.9	–	0.184 µM [rising, partial curve]
O=C(NCc1cccc2[nH]ccc12)C1CCC(=O)N(CCc2ccc(Cl)cc2)C1 (stereo unspecified)	1.39	–	0.366 µM [falling, full curve, poor fit]
CN1CC(=O)N(CC(=O)Nc2ccc(Br)cc2F)C1=O	–	–	4.11 µM [rising, single point]
O=C(OCC(=O)N1CCCC1)c1c(Cl)cccc1Cl	19.4	–	29.1 µM [rising, single point]
COCCN(C(=O)C1CC(=O)N(Cc2ccc(C)cc2)C1)c1c(N)n(CC(C)C)c(=O)[nH]c1=O (stereo unspecified)	-6.28	0.058 µM [falling, full curve, poor fit]	14.6 µM [falling, partial curve, poor fit]
CCC(C)NC(=S)Nc1ccccc1OC (stereo unspecified)	–	0.82 µM [rising, single point]	–
CC1S/C(=N/N=C/c2ccco2)N(Cc2ccc(F)cc2)C1=O (stereo unspecified)	19.7	2.06 µM [rising, single point]	–
COc1ccccc1N(C(=O)Cn1nnc2ccccc21)C(C(=O)NCc1ccco1)c1ccc(C)o1 (stereo unspecified)	32.7	2.59 µM [rising, partial curve, poor fit]	6.51 µM [rising, single point]
CCCSc1ncnc2c1oc1ccccc12	-10.3	–	6.51 µM [rising, single point]
CCOc1ccc(NC(=O)N2CCC(NC(=O)c3ccco3)CC2)cc1	-1.07	–	6.51 µM [falling, single point]
CN(C)c1ccnc2sc(C(N)=O)c(N)c12	–	2.59 µM [rising, partial curve]	2.06 µM [rising, partial curve]
C/C(=N\NC(=S)NCCc1ccccc1)c1ccc(Cl)cc1	283	29.1 µM [rising, single point]	–
CC(Nc1cccc2ccccc12)C(=O)N/N=C/c1ccccn1 (stereo unspecified)	38.7	0.291 µM [rising, full curve, poor fit]	0.82 µM [rising, full curve]
CCc1ccc(NC(=O)NCc2cccnc2)cc1	-25.7	0.651 µM [falling, full curve, poor fit]	29.1 µM [falling, single point]

Record cards, as listed above:
`CCC(C)NC(=S)Nc1ccccc1OC` (stereo unspecified) in the list: AC50 [1]: 0.82 µM [rising, single point]
`CCOc1ccc(NC(=O)N2CCC(NC(=O)c3ccco3)CC2)cc1` in the list: cell number change [%]: -1.07; AC50 [2]: 6.51 µM [falling, single point]

(listing goes on)

Compound	cell number change [%]	AC50 [1]	AC50 [2]
COCCNC(=O)CN(C)S(=O)(=O)c1ccc(Br)cc1	-21.5	–	6.51 µM [rising, full curve, poor fit]
CCN(C(=O)COc1ccc(C(=O)c2ccccc2)cc1)c1ccccc1	10.4	–	–
O=C(N/N=C/C(Br)=C/c1ccccc1)c1ccccc1[N+](=O)[O-]	-41.2	23.1 µM [falling, single point]	16.4 µM [falling, partial curve]
Cc1cc(C(=O)COC(=O)c2ccc3c(c2)NC(=O)CS3)c(C)n1CC1CCCO1 (stereo unspecified)	-21.4	–	0.00517 µM [falling, full curve, poor fit]
COc1ccc(CSc2nc(C)cc(C)c2S(C)(=O)=O)cc1	7.82	–	–
Cc1ccc(NC(=O)CNc2ccc(Cl)c(Cl)c2)cc1S(=O)(=O)N(C)C	-7.16	–	32.6 µM [falling, partial curve, poor fit]
NC(=O)N=Nc1c2[nH]c3ccccc3nc-2c2ccccc12	10.9	0.366 µM [rising, full curve, poor fit]	5.8 µM [rising, single point]
CNC(=O)c1ccc(NC(=O)c2cc(S(=O)(=O)N3CCOCC3)ccc2N2CCCC2)cc1	-8.17	–	29.1 µM [rising, single point]
Cn1c(/C(C#N)=C(\O)c2ccc([N+](=O)[O-])s2)nc2ccccc21	37.4	1.3 µM [rising, full curve, poor fit]	–
COc1ccc(C)cc1C(=O)CCC(=O)NCCc1ccc(S(N)(=O)=O)cc1	-1.39	–	6.51 µM [rising, single point]
Cc1ccccc1N1C(=O)C2CCCN2C1=S (stereo unspecified)	-7.78	2.06 µM [rising, partial curve, poor fit]	2.31 µM [rising, partial curve]
CCCc1n[nH]c2c1/C(=N/O)CC(c1ccccc1)C2 (stereo unspecified)	–	3.66 µM [rising, partial curve]	–
COc1ccc(S(=O)(=O)NCC(=O)O)cc1C(=O)NC1CCCCC1	-33.3	1.46 µM [rising, partial curve]	6.51 µM [falling, single point]
Cc1cc(C)nc(SCC2COc3ccccc3O2)n1 (stereo unspecified)	0.141	–	2.06 µM [rising, full curve]
CCCN(CC(=O)Nc1ccccc1C)C(=O)C1CC(=O)N(c2ccccc2C(C)CC)C1 (stereo unspecified)	10.8	–	29.1 µM [falling, single point]
CCn1c(SCC(=O)N/N=C/c2cccs2)nc2ccccc21	12.9	–	–
COc1ccc(N2CCN(CCNC(=O)CCC(=O)NNc3nc4ccccc4c4nc(C)nn34)CC2)cc1	-17.7	–	0.00517 µM [rising, full curve, poor fit]
Cn1c(SCc2ccc(F)cc2)nnc1-c1cnccn1	-9.94	–	10.3 µM [rising, single point]
CCOc1ccccc1NC(=O)c1cccc(NC(=O)c2ccco2)c1	–	0.651 µM [rising, full curve]	0.731 µM [rising, full curve]

Compound	cell number change [%]	AC50 [1]	AC50 [2]
Cc1ncsc1CCSc1nc2ccccc2c(=O)n1C	–	6.51 µM [rising, single point]	6.51 µM [rising, partial curve]
CCCCC(CC)C(=O)Nc1ccc(Cl)cn1 (stereo unspecified)	-8.05	–	–
CCCCCCc1c(O)nc(SCCN(C)C)[nH]c1=O	-34.2	–	–
CCOC(=O)c1sc(NC(=O)Cn2nnc3sc4c(c3c2=O)CCCC4)nc1C	14.2	–	4.61 µM [rising, partial curve]
CCN1CCN(C(c2cccs2)C(C)NC(=S)Nc2cc(C)ccc2C)CC1 (stereo unspecified)	-19.9	–	2.91 µM [falling, full curve, poor fit]
COCCN(C(=O)c1cc(Cl)ccn1)c1c(N)n(Cc2ccccc2)c(=O)[nH]c1=O	4.26	–	6.51 µM [falling, single point]
Cc1ccc(-c2nnc(Nc3ccc(C(=O)N(C)C)cc3)c3ccccc23)cc1S(N)(=O)=O	-15.3	–	29.1 µM [rising, partial curve]
N/C(=C/C(=O)c1ccccc1O)C(F)(F)F	-15.7	–	0.82 µM [falling, single point]
Cc1cc(N2CCCCC2)nc(NCc2ccccc2)n1	-41.6	29.1 µM [falling, partial curve, poor fit]	18.4 µM [falling, partial curve, poor fit]
CC(=O)Nc1ccc(S(=O)(=O)N(C)CC(=O)Nc2ccc(F)c(F)c2F)cc1	13.7	–	2.31 µM [rising, partial curve, poor fit]
O=C(O)CC(NC(=O)COc1ccc(Cl)cc1Cl)C(=O)O (stereo unspecified)	0.607	–	–
Cc1ccc[n+](C(C)C(=O)Nc2ccc([N+](=O)[O-])cc2C)c1 (stereo unspecified)	35.2	29.1 µM [rising, single point]	–
CC(=O)N1CCCc2cc(S(=O)(=O)NC(C(=O)NC(C)c3ccccc3)C(C)C)ccc21 (stereo unspecified)	-11	–	–
COCc1cc(=O)n2[nH]c(C)nc2n1	-26.2	–	–
COc1ccc(CC(=O)Nn2c(-c3ccccc3)nc3ccccc3c2=O)cc1	-31.4	18.4 µM [falling, partial curve, poor fit]	9.2 µM [falling, partial curve, poor fit]
Cc1cc(C)c(NC(=O)Cn2ncc3ccccc32)c(C)c1	–	0.259 µM [falling, full curve, poor fit]	–
O=C(CSc1ncn(-c2ccccc2)n1)N1CCc2ccccc21	–	–	0.461 µM [rising, partial curve, poor fit]
O=C(COC(=O)C1CC1)Nc1ccc(Cl)cc1Cl	9.12	–	–
CCOc1ccc(C(C(=O)NC2CCCC2)N(C(=O)c2snc(C(N)=O)c2N)C2CCCC2)cc1 (stereo unspecified)	14.6	–	–
